The source of these data is article PMC4958294.

These are yes or no findings as the source states them, for the method shown. Binding seen in cells or lysates may run through a third protein. Some results given as binding are weak or reduced against the parent protein; the word gives no strength. Where a sequence is shown, tags or fusion partners need not be part of it.

Experiment [1] deals with T1, GFP–Gin4 (Candida albicans Gin4, N-terminal GFP tag) (Candida albicans) (UniProt Q59W62).
T1 sequence: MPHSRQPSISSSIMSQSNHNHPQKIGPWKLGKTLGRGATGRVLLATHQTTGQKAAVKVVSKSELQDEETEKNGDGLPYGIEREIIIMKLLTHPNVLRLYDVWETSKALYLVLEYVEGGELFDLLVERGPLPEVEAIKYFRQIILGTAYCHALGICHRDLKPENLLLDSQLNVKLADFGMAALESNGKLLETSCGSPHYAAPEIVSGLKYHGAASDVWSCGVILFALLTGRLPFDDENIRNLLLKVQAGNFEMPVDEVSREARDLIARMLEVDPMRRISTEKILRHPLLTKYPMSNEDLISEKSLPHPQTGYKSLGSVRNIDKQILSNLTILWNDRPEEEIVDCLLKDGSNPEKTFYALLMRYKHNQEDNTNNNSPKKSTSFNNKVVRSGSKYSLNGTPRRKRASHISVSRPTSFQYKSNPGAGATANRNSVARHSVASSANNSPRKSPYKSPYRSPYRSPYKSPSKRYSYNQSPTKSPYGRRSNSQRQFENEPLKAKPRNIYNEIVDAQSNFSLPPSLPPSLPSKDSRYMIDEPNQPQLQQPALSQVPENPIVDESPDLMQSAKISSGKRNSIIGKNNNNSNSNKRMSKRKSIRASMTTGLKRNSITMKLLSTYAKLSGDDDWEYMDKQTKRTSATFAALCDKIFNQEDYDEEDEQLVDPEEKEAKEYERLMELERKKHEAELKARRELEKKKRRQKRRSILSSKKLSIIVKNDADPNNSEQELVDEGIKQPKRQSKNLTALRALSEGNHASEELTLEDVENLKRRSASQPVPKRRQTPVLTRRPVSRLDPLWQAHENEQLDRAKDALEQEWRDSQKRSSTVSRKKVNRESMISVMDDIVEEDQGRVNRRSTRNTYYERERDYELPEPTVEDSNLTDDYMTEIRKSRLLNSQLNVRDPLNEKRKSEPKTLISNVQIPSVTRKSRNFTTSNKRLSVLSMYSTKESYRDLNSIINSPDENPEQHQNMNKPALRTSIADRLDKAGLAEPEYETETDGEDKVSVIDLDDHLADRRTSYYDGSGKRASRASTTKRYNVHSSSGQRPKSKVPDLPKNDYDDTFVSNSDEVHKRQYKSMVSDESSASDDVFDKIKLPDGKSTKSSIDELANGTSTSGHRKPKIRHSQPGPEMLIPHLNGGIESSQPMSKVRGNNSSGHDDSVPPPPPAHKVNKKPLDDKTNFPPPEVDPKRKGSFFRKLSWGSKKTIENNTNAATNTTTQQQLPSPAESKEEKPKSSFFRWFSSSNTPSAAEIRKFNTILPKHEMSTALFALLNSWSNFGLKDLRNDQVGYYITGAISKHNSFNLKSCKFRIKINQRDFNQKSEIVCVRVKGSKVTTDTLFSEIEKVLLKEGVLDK
Briefly: co-IP; GFP-tagged Gin4 proteins precipitated with anti-GFP beads from lysates of log-phase C. albicans yeast cells coexpressing Cdc14–Myc; western blot for Myc and GFP; GIN4-ON (Fig. 6B), GIN4-ON and GIN4-OFF (Fig. S4B, S4C).

Experiment [2] concerns the target T2, GFP–Gin4^CT1Δ (Gin4 lacking CT1, residues 1051–1349; N-terminal GFP tag) (Candida albicans) (UniProt Q59W62).
T2 sequence: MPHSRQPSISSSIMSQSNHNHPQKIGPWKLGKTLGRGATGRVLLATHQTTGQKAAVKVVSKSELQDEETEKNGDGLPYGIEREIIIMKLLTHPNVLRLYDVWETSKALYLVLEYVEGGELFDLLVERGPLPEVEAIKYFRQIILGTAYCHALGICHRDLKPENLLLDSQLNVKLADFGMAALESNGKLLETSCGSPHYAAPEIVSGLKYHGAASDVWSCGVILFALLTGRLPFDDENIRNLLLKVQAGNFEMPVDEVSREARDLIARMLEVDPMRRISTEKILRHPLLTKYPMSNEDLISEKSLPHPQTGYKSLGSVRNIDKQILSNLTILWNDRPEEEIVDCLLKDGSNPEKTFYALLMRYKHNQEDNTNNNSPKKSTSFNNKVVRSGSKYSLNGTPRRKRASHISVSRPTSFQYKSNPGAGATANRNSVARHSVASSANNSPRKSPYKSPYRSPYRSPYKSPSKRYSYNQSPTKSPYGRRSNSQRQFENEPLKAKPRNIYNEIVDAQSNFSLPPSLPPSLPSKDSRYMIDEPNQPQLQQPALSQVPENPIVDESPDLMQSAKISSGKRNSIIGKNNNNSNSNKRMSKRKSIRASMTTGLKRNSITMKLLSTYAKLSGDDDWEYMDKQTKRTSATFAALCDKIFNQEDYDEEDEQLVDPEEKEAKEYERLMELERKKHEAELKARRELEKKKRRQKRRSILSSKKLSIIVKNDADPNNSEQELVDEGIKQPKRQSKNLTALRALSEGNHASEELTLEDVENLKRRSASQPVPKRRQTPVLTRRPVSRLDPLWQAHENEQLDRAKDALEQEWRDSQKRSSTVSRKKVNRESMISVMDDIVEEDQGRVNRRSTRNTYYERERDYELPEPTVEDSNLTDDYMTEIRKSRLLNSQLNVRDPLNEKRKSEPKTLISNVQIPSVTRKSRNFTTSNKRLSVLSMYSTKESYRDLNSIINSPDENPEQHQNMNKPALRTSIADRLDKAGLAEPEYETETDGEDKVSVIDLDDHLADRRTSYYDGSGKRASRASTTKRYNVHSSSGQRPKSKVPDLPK
The description is as above.

The target in experiment [3] is T3, GFP–CT3 (Gin4 residues 451–750, N-terminal GFP tag) (Candida albicans) (UniProt Q59W62).
T3 sequence: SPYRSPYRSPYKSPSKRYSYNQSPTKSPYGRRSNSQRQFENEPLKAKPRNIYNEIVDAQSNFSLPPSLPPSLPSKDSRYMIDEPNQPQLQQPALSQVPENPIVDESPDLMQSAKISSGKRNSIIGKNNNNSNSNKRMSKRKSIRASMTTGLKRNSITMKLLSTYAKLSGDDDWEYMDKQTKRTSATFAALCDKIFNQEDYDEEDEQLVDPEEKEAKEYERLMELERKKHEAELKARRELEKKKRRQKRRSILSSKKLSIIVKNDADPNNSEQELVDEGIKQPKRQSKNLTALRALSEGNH
Described as above.

In experiment [4] the target is T4, GFP–CT3.3 (Gin4 residues 551–650, N-terminal GFP tag) (Candida albicans) (UniProt Q59W62).
T4 sequence: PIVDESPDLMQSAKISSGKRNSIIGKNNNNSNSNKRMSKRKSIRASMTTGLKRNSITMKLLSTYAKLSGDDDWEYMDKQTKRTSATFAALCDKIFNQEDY
Described as above.

Experiment [5] deals with T5, Gin4–GFP (Gin4 with GFP, expressed from its endogenous promoter) (Candida albicans) (UniProt Q59W62).
T5 sequence (chain, CDK-phosphorylated serine residues (detected with the PScdk antibody)): T1 sequence
Briefly: co-IP; Gin4–GFP immunoprecipitated (GFP) from WT and cdc14Δ/Δ C. albicans cells that hold untagged and GFP-tagged Gin4, at timed intervals after release from stationary phase; western blot for PScdk and GFP.

B1: Cdc14–Myc (phosphatase Cdc14, C-terminal Myc tag) (enzyme, UniProt Q59NH8 1-542)
chain: MHSSSVHVPLIEFLKNRIYLGAYDHHKRDTEDLAYFTVEDALPYNAFYMDFGPLNIGHLYRFAVLLHKKLNEDSTQGKGLVIYSSTSPKERANLACLLCCYMILLQNWAPHQVLQPIAQITPPLQAFRDAGYSSADYEITIQDVVYAMWRAKERGMIDLAKFDLDEYEQYERVDQGDFNVISKDFIAFASPQQSKRGGLNEPFQKVLEYFVENNVQLVVRLNSHLYDAKEFTKRNIKHIDMIFDDGTCPTLEYVQKFIGAAECIINKGGKIAVHCKAGLGRTGCLIGAHLIYTHGFTANECIAYMRMIRPGMVVGPQQHWLYLHHDDFRSWRHTMIVDNRPDPLIGNLFPLCSYEDYKQRLKEAKRKERLQLQQQLTSPLADSSVINTPIRRRKVSGALASKIQTVVPIESPGQPRKYFEDSEDIDEVEMVNNSDDENTMQDIIQSSPARYDSVTPKTKDNSDWRVLRSISTNNVSSQQSIHIIKTTTTKTVNETLSSPPGTSPTNVLRVSKARSKNRIASGNSQTSRAHSGGVRKLSGKKH
Take B1: the binding result in experiment [1], in experiment [2], in experiment [3] and in experiment [4] was “binds” in each case.

B2: untagged Gin4 (protein, UniProt Q59W62 1-1349)
chain: T1 sequence
modifications: CDK-phosphorylated serine residues (detected with the PScdk antibody)
Consider B2, for which the binding result in experiment [5] is recorded as “binds”.
